The values below come from publication PMC8327751.

Amino acid sequences for entries named in this document (tags omitted).
UniProt O15205: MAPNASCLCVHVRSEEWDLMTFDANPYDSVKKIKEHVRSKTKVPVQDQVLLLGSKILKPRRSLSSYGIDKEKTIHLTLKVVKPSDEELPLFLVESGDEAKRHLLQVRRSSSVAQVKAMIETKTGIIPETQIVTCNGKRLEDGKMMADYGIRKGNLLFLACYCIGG

This experiment addresses tumor suppressor p53 (human (endogenous in HCT116)) (UniProt P04637). Nature of the experiment: co-IP; immunoprecipitation of endogenous UBD and p53 from HCT116 cell lysate (RIPA lysis buffer with 1% PMSF); UBD-p53 complexes also examined in cells with shRNA knock-down of UBA6 or USE1; procedure as in ref. 34.

Results are given in words; binding and its absence hold for the method and conditions named. Binding seen in cells or lysates may run through a third protein. Some binding calls cover weakened binding; strength is not graded here.

Consider Ubiquitin D (from UniProt O15205 1-165), for which the binding result was “binds”.
